These are yes or no findings as the source states them, for the method shown. Binding seen in cells or lysates may run through a third protein. Some entries that bind do so weakly or less than the wild type.

Amino acid sequences for entries named in this document (tags omitted). Residues count along the entry.
HA-Rheb^wt (Q15382, residues 1-181): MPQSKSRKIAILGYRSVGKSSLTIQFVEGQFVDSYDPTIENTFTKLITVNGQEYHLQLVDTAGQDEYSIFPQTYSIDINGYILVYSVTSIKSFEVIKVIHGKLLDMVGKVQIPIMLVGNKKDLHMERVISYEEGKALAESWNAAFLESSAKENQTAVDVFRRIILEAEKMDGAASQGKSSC

This is an account of results in patent US20090304667A1 (POSTECH ACADEMY INDUSTRY, published 2009).

In one assay the target is HA-Rheb^wt (human) (UniProt Q15382). As to the kind of experiment: GST pull-down of HA-Rheb^wt cell lysates with truncated GST-PLD2 fragments.
The next assay has as its target T1, PLD2^wt (Homo sapiens, UniProt O14939 1-933).
T1 construct: Ectopically expressed in COS7 or HEK293 cells from a mammalian expression vector; used as cell lysate; also called phospholipase D2
As to the kind of experiment: GST pull-down with PLD2-expressing cell lysates.

As for “GST-2F3 (amino acids 476-612 of PLD2) (from UniProt O14939 476-612)”, the binding entry with HA-Rheb^wt (human) is on record as “binds”. Regarding GST-Rheb (from UniProt Q15382 1-184), the binding entry in the assay with PLD2^wt was “binds”.
